The record followed here is the supplement of paper PMC10849652.

Amino acid sequences for entries named in this document (tags omitted). A change or cut given only in a name is not applied to a line headed by its entry.
UniProt Q86T20: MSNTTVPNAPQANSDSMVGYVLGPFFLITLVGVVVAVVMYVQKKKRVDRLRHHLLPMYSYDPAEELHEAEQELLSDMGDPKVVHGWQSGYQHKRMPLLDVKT
UniProt Q5SQN1: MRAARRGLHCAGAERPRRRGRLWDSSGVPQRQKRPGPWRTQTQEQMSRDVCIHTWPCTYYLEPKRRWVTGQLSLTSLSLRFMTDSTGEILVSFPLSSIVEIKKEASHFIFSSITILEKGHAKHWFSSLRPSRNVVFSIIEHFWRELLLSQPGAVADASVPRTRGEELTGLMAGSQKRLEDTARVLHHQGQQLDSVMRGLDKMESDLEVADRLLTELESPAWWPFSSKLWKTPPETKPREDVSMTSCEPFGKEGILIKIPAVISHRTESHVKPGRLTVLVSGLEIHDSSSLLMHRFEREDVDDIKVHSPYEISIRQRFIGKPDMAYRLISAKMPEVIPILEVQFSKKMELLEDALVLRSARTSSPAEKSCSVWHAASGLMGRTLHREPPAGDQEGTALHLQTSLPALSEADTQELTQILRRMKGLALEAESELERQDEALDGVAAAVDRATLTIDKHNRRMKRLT
UniProt Q9NRG4: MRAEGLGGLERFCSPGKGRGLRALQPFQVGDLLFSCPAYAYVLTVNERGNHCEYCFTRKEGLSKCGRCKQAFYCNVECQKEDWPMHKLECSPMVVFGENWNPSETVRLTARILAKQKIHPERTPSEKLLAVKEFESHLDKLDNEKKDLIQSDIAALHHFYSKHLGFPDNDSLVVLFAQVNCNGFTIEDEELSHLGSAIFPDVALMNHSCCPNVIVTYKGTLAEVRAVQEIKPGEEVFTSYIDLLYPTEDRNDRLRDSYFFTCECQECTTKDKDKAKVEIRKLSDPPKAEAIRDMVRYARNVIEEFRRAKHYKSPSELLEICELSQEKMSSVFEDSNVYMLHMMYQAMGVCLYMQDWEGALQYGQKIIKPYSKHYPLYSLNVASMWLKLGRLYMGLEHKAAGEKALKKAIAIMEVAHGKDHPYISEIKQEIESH
UniProt Q9H3E2: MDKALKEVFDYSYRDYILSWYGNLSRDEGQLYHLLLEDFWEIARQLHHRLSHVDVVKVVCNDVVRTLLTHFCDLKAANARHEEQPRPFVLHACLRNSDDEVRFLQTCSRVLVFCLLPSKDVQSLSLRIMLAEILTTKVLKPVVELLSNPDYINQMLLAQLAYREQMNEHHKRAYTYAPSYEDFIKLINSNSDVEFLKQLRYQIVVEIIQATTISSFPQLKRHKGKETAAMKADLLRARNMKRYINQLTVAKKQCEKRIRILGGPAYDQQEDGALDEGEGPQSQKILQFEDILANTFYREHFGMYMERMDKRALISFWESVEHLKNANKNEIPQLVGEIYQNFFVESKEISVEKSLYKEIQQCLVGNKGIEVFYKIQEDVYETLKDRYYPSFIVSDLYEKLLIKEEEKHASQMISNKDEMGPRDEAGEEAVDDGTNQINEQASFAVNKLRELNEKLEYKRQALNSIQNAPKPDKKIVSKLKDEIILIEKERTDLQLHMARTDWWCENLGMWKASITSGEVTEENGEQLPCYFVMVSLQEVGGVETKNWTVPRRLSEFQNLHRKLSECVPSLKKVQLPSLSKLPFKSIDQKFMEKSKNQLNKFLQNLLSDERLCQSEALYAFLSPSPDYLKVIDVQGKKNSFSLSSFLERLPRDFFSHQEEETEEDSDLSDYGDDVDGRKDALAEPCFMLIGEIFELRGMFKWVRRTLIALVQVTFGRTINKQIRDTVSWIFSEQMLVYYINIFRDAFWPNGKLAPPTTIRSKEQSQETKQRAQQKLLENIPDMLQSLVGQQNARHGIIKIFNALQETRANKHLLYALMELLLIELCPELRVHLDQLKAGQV
UniProt Q99717: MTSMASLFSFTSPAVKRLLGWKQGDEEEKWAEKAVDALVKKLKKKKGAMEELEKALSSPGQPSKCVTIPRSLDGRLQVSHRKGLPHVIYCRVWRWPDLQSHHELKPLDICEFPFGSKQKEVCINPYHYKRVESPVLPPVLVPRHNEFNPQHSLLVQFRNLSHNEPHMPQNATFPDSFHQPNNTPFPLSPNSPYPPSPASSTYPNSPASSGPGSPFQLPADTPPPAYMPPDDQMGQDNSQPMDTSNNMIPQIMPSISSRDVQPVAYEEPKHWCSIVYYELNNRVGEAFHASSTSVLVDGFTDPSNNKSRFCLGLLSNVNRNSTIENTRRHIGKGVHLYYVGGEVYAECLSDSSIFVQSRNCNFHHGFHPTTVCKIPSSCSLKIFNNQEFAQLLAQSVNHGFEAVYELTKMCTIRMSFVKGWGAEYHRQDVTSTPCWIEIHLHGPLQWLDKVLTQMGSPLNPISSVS
UniProt O75971: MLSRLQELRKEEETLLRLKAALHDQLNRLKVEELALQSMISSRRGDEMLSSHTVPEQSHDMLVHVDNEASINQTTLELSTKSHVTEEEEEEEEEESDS
UniProt P0DMW3: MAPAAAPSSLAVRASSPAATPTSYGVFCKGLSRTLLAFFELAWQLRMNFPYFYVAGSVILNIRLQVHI
UniProt Q96GM5, whole entry, looked up: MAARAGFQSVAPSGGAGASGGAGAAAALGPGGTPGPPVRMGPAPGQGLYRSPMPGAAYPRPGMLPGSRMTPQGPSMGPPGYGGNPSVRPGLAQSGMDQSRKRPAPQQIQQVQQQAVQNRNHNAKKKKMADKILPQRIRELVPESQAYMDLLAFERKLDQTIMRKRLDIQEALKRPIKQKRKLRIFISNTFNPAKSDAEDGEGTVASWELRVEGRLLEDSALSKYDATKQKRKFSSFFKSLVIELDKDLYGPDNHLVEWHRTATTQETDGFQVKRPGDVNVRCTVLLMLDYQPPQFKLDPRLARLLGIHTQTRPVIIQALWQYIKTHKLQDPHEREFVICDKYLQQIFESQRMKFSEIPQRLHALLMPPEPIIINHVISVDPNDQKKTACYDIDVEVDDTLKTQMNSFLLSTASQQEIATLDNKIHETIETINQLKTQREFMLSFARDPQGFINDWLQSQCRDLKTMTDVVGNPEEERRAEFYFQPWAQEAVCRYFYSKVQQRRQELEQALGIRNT
UniProt Q9H0W8: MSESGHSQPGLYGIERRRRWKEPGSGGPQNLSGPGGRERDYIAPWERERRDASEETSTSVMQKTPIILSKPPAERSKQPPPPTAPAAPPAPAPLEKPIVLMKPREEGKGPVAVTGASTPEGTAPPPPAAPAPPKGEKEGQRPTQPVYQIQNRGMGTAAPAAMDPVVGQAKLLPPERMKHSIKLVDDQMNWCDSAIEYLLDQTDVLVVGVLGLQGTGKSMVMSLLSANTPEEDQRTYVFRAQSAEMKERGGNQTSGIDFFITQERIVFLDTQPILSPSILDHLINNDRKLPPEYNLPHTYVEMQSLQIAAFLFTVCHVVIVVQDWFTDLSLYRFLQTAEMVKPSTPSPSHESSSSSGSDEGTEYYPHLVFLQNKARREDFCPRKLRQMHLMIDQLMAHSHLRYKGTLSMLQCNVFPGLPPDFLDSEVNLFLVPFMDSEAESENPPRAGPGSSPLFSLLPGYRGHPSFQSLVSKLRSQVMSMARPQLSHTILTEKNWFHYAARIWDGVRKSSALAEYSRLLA
UniProt Q9BT81: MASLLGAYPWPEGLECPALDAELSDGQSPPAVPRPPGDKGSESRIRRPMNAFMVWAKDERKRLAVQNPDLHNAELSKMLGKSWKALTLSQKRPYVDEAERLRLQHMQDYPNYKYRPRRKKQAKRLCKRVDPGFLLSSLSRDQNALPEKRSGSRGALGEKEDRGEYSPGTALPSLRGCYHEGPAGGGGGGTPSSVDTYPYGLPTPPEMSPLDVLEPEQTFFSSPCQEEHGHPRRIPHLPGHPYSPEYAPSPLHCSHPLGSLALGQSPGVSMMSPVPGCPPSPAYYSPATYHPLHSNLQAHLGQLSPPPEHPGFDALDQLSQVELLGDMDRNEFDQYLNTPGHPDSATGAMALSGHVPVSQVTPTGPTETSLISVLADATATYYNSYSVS
UniProt P08294: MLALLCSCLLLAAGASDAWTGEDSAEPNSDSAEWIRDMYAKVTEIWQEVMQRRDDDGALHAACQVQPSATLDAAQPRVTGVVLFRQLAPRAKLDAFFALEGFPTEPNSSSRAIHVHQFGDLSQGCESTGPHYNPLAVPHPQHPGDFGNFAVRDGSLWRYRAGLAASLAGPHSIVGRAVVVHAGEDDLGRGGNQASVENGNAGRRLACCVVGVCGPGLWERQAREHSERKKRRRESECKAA
UniProt P17405: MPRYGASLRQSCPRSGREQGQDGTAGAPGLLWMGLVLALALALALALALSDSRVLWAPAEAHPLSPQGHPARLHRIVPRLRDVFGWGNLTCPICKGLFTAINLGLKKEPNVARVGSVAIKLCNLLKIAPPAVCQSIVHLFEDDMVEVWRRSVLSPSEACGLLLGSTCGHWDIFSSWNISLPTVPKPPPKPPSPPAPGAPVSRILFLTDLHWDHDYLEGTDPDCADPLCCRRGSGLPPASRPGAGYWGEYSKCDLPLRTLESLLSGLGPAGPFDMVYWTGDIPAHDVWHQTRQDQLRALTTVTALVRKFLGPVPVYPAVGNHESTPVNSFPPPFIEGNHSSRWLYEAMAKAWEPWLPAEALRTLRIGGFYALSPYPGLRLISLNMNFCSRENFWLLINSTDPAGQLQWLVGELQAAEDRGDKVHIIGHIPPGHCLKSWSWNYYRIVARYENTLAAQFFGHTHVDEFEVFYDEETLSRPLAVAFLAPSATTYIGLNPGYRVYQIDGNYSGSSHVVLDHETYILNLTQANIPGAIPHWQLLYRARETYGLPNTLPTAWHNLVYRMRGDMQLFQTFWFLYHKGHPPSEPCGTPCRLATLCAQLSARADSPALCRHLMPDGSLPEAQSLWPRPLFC
UniProt Q8TAD8: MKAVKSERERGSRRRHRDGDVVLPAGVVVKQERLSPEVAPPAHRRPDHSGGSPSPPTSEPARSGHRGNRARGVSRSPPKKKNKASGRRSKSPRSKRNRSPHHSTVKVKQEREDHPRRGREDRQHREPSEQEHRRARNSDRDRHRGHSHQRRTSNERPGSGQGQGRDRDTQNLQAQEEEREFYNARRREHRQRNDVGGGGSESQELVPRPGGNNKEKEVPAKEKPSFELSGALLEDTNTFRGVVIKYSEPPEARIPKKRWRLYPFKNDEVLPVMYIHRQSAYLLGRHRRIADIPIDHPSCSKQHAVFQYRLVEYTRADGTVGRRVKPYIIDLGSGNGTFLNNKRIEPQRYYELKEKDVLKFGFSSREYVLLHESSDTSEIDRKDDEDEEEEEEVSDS
UniProt Q13424: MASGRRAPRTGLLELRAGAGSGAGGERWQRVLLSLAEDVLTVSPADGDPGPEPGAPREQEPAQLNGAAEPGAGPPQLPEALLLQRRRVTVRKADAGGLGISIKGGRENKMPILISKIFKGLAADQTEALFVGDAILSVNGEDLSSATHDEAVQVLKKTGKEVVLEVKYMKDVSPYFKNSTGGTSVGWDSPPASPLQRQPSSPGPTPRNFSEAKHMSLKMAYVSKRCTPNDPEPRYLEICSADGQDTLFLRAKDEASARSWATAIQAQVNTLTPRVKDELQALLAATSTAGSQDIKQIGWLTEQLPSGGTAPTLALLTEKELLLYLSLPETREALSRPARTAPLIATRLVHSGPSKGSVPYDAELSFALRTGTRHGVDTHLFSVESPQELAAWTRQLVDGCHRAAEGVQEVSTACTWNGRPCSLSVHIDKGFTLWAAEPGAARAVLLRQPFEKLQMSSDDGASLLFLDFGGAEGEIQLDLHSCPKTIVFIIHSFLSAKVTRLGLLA
UniProt P35711: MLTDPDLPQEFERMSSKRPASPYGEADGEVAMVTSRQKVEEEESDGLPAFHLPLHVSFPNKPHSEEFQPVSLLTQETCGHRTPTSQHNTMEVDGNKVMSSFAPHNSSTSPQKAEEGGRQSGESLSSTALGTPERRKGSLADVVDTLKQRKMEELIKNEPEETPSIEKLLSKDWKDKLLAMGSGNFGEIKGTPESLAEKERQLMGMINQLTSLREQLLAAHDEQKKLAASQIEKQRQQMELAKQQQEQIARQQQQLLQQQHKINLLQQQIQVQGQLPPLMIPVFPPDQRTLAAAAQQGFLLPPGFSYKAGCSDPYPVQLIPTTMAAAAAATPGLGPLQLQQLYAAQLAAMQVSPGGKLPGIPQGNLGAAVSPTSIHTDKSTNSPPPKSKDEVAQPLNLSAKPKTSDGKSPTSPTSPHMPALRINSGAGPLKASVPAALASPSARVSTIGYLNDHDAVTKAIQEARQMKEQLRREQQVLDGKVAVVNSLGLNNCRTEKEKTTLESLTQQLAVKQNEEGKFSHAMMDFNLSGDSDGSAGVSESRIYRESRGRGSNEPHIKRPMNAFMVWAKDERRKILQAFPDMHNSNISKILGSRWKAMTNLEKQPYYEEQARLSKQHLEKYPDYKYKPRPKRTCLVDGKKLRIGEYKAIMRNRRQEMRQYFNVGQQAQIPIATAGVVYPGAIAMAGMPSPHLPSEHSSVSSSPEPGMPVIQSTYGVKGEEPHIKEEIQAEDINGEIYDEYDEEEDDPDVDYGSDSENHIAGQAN

Some of the results follow.

Compound in one test: CCn1c(C(=O)N(C2CC2)C2CC2)cc2c3c(ncn3C)c(Nc3cc(C)n(C)n3)nc21
Nature of the test: log2 fold change, soluble protein after heating vs DMSO (PISA); higher = thermal stabilisation; K562 cells, 10 uM, 30 min; active = over 0.2 and 3.5 SD of the protein, either way, in both replicates (recomputed). The essentials: (§1)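 Aliquots of K562 cells (2×10^6 cells/mL) treated with 10 μM compound for 30 min were heated for 3 min over 48°C-58°C. After pooling and extraction in PBS with 0.5% NP-40 at 4°C, soluble protein from a 21,000xg, 90 min spin was quantified by TMTpro 16plex LC-MS/MS with channel sums equalised. Thermal stability is expressed against control samples, from duplicates, as a log2 fold change.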
On to SMTN isoform 6 (UniProt P53814), for which the log2 fold change was inactive: -0.204.

Turning to SMIM29 (UniProt Q86T20), the log2 fold change was inactive: 0.066. The same measure, in the same setting: then SNAP47 (UniProt Q5SQN1), with inactive: -0.106; and SMYD2 (UniProt Q9NRG4), with inactive: -0.034. Still for that read-out and setting: the value for SNX25 (UniProt Q9H3E2) was inactive: -0.166.

Take SMAD5 (UniProt Q99717): the log2 fold change is inactive: -0.126. The same measure, in the same setting: then SMARCAL1 (UniProt Q9NZC9), with inactive: -0.156; and SNAPC5 (UniProt O75971), with inactive: 0.162; and SMIM10L1 (UniProt P0DMW3), with inactive: -0.169. On the same count and under the same terms, the value for SMARCD1 (UniProt Q96GM5) was inactive: -0.024.

In the case of SMG9 (UniProt Q9H0W8), the log2 fold change was inactive: -0.114. Regarding SOX7 isoform 2 (UniProt Q9BT81), the log2 fold change is inactive: -0.033.

On to SNX18 (UniProt Q96RF0), for which the log2 fold change is inactive: -0.064. On the same count and under the same terms, then SNX13 (UniProt Q9Y5W8), with inactive: 0.011; and SMG5 (UniProt Q9UPR3), with inactive: 0.054; and SORBS3 (UniProt O60504), with inactive: -0.117.

Compound in the next test: CCn1cc(-c2ccnc3[nH]c(-c4cccc(CN(C)C)c4)cc23)c(-c2ccc(NC(=O)N(C)C)cc2)n1
Described as above. The essentials: as §1
Regarding SOD3 (UniProt P08294), the log2 fold change is inactive: 0.004. Still for that read-out and setting: then SLC8B1 (UniProt Q6J4K2), with inactive: 0.091. For SMYD2 (UniProt Q9NRG4), the log2 fold change was inactive: 0.065. The same measure, in the same setting: then SNX4 (UniProt O95219), with inactive: 0.115; and SMAD5 (UniProt Q99717), with inactive: -0.055.

For the target SLFN14 (UniProt P0C7P3), the log2 fold change is inactive: 0.045.

As to SMPD4 isoform 2 (UniProt Q9NXE4), the log2 fold change is inactive: -0.236. Still for that read-out and setting: then SMAD3 (UniProt P84022), with inactive: 0.105. Still for that read-out and setting: then SNAPC5 (UniProt O75971), with inactive: -0.034; and SMPD1 (UniProt P17405), with inactive: 0.169.

As for SNIP1 (UniProt Q8TAD8), the log2 fold change is inactive: 0.205. Still for that read-out and setting: the value for SMG9 (UniProt Q9H0W8) was inactive: 0.065.

For SOX7 isoform 2 (UniProt Q9BT81), the log2 fold change was inactive: 0.158. On the same count and under the same terms, then SNTA1 (UniProt Q13424), with inactive: -0.106. On to SORBS3 (UniProt O60504), for which the log2 fold change is inactive: -0.228.

Compound in a further test: CN(C)CC(=O)Nc1ccc2[nH]c(=O)c3ccccc3c2c1
The test is described as above. The essentials: as §1
For SOD3 (UniProt P08294), the log2 fold change was inactive: 0.047. The same measure, in the same setting: then SLC9B2 (UniProt Q86UD5), with inactive: 0.084; and SMTN isoform 6 (UniProt P53814), with inactive: 0; and SOX5 (UniProt P35711), with inactive: -0.062. The same measure, in the same setting: the value for SLC8B1 (UniProt Q6J4K2) was inactive: -0.005; that for SNAP47 (UniProt Q5SQN1) was inactive: 0.041; that for SMYD2 (UniProt Q9NRG4) was inactive: 0.047. For the target SMAD5 (UniProt Q99717), the log2 fold change is inactive: -0.065. Still for that read-out and setting: the value for SLFN14 (UniProt P0C7P3) was inactive: -0.286. On the same count and under the same terms, then SMPD4 isoform 2 (UniProt Q9NXE4), with inactive: -0.044; and SMAD3 (UniProt P84022), with inactive: -0.175; and SMARCAL1 (UniProt Q9NZC9), with inactive: 0.31. As for SNAPC5 (UniProt O75971), the log2 fold change was inactive: 0.043. As for SOX6 (UniProt P35712), the log2 fold change is inactive: -0.052. With SMPD1 (UniProt P17405), the log2 fold change was inactive: 0.351. Same read-out and setting: then SMG9 (UniProt Q9H0W8), with inactive: 0.05; and SOX7 isoform 2 (UniProt Q9BT81), with inactive: -0.19. With SNTA1 (UniProt Q13424), the log2 fold change was inactive: -0.116. The same measure, in the same setting: the value for SMG5 (UniProt Q9UPR3) was inactive: 0.052.
